According to paper PMC4545792:
Where a chain is given by its changes, count along the chain named. Where two headings read alike, the source gives them in different places. No constants are given. Whether binding was seen depends on the method and setting. In cells and extracts the contact can be indirect. Some entries that bind do so weakly or less than the wild type. Sequences can lack the tags named with a protein. One block for each molecule: values may come before it.

Sequences of proteins named here, by UniProt entry; tags and fusion partners are left off. Residues count along the entry.
UniProt Q61102, residues 23-752: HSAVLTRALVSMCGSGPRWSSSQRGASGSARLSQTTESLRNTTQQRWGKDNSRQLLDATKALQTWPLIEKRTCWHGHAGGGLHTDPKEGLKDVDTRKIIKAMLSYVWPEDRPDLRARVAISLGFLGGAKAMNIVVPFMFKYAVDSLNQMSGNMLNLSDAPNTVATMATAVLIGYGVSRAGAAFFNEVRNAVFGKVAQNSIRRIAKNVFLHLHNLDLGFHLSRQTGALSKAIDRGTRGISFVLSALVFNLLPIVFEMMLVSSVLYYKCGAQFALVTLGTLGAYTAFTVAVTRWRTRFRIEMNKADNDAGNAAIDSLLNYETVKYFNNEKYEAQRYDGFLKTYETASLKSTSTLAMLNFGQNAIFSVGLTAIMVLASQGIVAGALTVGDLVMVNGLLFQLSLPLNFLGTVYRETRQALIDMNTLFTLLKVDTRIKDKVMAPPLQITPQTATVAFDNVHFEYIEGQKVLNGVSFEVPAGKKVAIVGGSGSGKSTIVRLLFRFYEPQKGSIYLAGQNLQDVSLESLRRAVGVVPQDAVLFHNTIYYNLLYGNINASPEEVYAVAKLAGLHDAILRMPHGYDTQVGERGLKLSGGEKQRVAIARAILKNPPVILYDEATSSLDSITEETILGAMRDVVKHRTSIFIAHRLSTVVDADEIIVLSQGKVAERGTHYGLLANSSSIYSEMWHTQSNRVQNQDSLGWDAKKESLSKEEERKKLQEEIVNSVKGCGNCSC

Key:
Assay in all cases: co-IP; FLAG elutions of the anti-FLAG affinity purification from mitochondrial lysate of induced MEL cells (empty vector, WT FECH, M76H, E343K), immunoblots probed for abcb7, abcb10, sucla2, ppox and fech
[1] = target: T1, FLAG-FECH M76H variant (human ferrochelatase) (human) (UniProt P22830)
T1 sequence: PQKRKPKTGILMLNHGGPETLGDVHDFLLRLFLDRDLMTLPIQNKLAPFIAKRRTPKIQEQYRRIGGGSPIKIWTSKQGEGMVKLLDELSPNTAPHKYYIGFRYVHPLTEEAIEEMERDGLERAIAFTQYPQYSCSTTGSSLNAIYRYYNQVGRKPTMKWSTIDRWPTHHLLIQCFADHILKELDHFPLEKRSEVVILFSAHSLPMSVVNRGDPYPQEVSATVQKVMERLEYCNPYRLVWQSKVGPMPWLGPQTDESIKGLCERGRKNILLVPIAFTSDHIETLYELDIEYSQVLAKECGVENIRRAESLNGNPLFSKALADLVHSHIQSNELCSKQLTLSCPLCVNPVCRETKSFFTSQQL

[2] = target: T2, FLAG-FECH (human ferrochelatase, wild type) (human) (UniProt P22830)
T2 sequence: T1 sequence with H15M

[3] = target: T3, FLAG-FECH E343K variant (human ferrochelatase) (human) (UniProt P22830)
T3 sequence: T1 sequence with H15M, E282K

[4] = target: T1, FLAG-FECH M76H variant (human ferrochelatase) (human); remark: listed apart in the source
[5] = target: T2, FLAG-FECH (human ferrochelatase, wild type) (human); remark: listed apart in the source
[6] = target: T3, FLAG-FECH E343K variant (human ferrochelatase) (human); remark: listed apart in the source

Molecule: mouse abcb7 (from UniProt Q61102 23-752)
- binding [1]: binds
- binding [2]: binds
- binding [3]: binds

B3: mouse protoporphyrinogen oxidase (enzyme, UniProt P51175 1-477)
chain: MGRTVIVLGGGISGLAASYHLIRGPSPPKVILVEGSKRLGGWIRSIRGSDGAIFELGPRGIRPAGALGARTLLLVSELGLESEVLPVRGDHPAAQNRFLYVGGTLHPLPSGLRGLLRPSPPFSKPLFWAGLRELLKPRGKEPDETVHSFAQRRLGPEVASLAMDSLCRGVFAGNSRELSIRSCFPSLFQAEQTHRSILLGLLLGAGQSPQPDSSLIRQARAERWSQWSLRGGLEVLPQALHNHLASKGVTVLSGQPVCGLSLQPEGRWKVSLGDSSLEADHIISAIPASELSKLLPAEAAPLARILSTIKAVSVAVVNLQYRGACLPVQGFGHLVPSSEDPTVLGIVYDSVAFPEQDGNPPSLRVTVMLGGYWLQKLKAAGHQLSPELFQQQAQEAAATQLGLKEPPSHCLVHLHKNCIPQYTIGHWQKLDSAMQFLTAQRLPLTLAGASYEGVAVNDCIESGRQAAVAVLGTESNS
- binding [4]: binds
- binding [5]: binds
- binding [6]: binds

Next, values leading:

- binding [4]: binds
- binding [5]: binds
- binding [6]: binds
B1: mouse succinyl-CoA synthetase beta subunit (sucla2) (enzyme, UniProt Q9Z2I9 54-463)
chain: SLHEYLSMELLQEAGVSVPKGFVAKSSDEAYAIAKKLGSKDVVIKAQVLAGGRGKGTFTSGLKGGVKIVFSPEEAKAVSSQMIGQKLITKQTGEKGRICNQVLVCERKYPRREYYFAITMERSFQGPVLIGSAQGGVNIEDVAAENPEAIVKEPIDIVEGIKKEQAVTLAQKMGFPSNIVDSAAENMIKLYNLFLKYDATMVEINPMVEDSDGKVLCMDAKINFDSNSAYRQKKIFDLQDWSQEDERDKEAANADINYIGLDGSIGCLVNGAGLAMATMDIIKLHGGTPANFLDVGGGATVQQVTEAFKLITSDKKVQAILVNIFGGIMRCDVIAQGIVMAVKDLEIRIPVVVRLQGTRVDDAKALIADSGLKILACDDLDEAAKMVVKLSEIVTLAKEAHVDVKFQLPI

- binding [4]: binds
- binding [5]: binds
- binding [6]: binds
B2: mouse abcb10 (protein, UniProt Q9JI39 83-715)
chain: AGPRAAHPLFARLQGAAATGVRDLGNDSQRRPAATGRSEVWKLLGLVRPERGRLSAAVGFLAVSSVITMSAPFFLGRIIDVIYTNPSEGYGDSLTRLCAVLTCVFLCGAAANGIRVYLMQSSGQSIVNRLRTSLFSSILRQEVAFFDKTRTGELINRLSSDTALLGRSVTENLSDGLRAGAQASVGVGMMFFVSPSLATFVLSVVPPISVLAVIYGRYLRKLSKATQDSLAEATQLAEERIGNIRTIRAFGKEMTEVEKYTGRVDQLLQLAQKEALARAGFFGAAGLSGNLIVLSVLYKGGLLMGSAHMTVGELSSFLMYAFWVGLSIGGLSSFYSELMKGLGAGGRLWELLERQPRLPFNEGMVLDEKTFQGALEFRNVHFTYPARPEVSVFQDFSLSIPSGSVTALVGPSGSGKSTVVSLLLRLYDPNSGTVSLDGHDIRQLNPVWLRSKIGTVSQEPVLFSCSVAENIAYGADNLSSVTAQQVERAAEVANAAEFIRSFPQGFDTVVGEKGILLSGGQKQRIAIARALLKNPKILLLDEATSALDAENEHLVQEALDRLMEGRTVLIIAHRLSTIKNANFVAVLDHGKICEHGTHEELLLKPNGLYRKLMNKQSFLSYNGAEQFLEPARA
